Results are given in words; binding and its absence hold for the method and conditions named. Some entries that bind do so weakly or less than the wild type.
Key:
[1] = target: glutathione S-transferase (GST)-HmtA chimeric construct, biotinylated in vivo (Methanobrevibacter smithii); test: ELISA (figure legend)
[2] = target: glutathione S-transferase (GST)-HmtA chimeric construct, biotinylated in vivo (Methanobrevibacter smithii); test: ELISA, biotinylated GST-HmtA immobilised on coated plates

B1: scFv of monoclonal antibody mAb4 (N-VH-linker-VL-C) (scFv)
scFv: EVQLVESGGGLVQPGGSLRLSCAASGFTFSSYSMNWVRQAPGKGLEWVSYISSSSSTIYYADSVKGRFTISRDNAKNSLYLQMNSLRAEDTAVYYCARDFPNTEAFDIWGQGTLVTVSSGGGGSGGGGSGGGGSTQSALTQPASVSGSPGQSITISCTGTSSDVGGYNYVSWYQQHPGKAPKLMIYEVSNRPSGVSNRFSGSKSGNTASLTISGLQAEDEADYYCSSYDVFGGGTKLTVLG
binding [1]: binds | binding [2]: binds

— US20250180556A1
